Here are results for one compound from patent US10048278B2, “Screening for neurotoxic amino acid associated with neurological disorders” (priority 2003, dated 2018).

This data set can be described thus: BMAA in Gunnera plants with cyanobacterial symbiont. The note with it: Gunnera kauaiensis, petiolar tissue.

As to `CNC[C@H](N)C(=O)O` [BMAA, β-N-methylamino-L-alanine], the BMAA concentration came out at 4 µg/g.
